Measurements reported in PubChem BioAssay AID1159578 (Peter MacCallum Cancer Centre, 2015)

- Screen: 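siRNA pools altering how lymphatic endothelial cells close a scratch wound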 (primary screen)
- Cell system: human lymphatic endothelial cells
- Reagents: siRNA pool against human genes, 40 nM
- Timing: 48 h after transfection
- Measured: 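Cells stained with dye and imaged after a scratch; covered wound area and nuclei counted, duplicates averaged, migration set against mock wells and turned into a robust z-score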
- Direction: migration robust z-score: higher = faster migration into the scratch; nuclei per well: higher = more cells in the well
- Hit rule: 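Migration changed when robust z exceeds 2 or falls below -2 and mean nuclei number is at least 3300; otherwise not called changed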
- Calls: active = migration changed; inactive = no migration change, or too few cells
This is a random part of about 18,000 reagents. About 1,030 of all reagents (5.7%) were called active. 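Inactive calls also include pools with fewer than 3300 nuclei, whose migration was not assessed.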 Raw values vary from plate to plate and are shown uncorrected. The numbers tell different reagents against one gene apart. Not all columns of the deposit are shown.

gene knocked down	pool no.	migration robust z-score	nuclei per well, duplicate mean	activity call
GGCT (GeneID 79017)	1	-1.04	5696	inactive
MFN1 (GeneID 55669)	1	0.86	6154	inactive
LIG1 (GeneID 3978)	1	1.19	4308	inactive
CT45A6 (GeneID 541465)	1	0.56	4522	inactive
TMEM44 (GeneID 93109)	1	-1.1	6090	inactive
ZNF823 (GeneID 55552)	1	1.17	6470	inactive
DCC (GeneID 1630)	1	-0.44	5650	inactive
FSTL5 (GeneID 56884)	1	0.68	5716	inactive
SLC38A2 (GeneID 54407)	1	0.32	6327	inactive
SGPL1 (GeneID 8879)	1	0.18	6392	inactive
ZNF408 (GeneID 79797)	1	0.86	5157	inactive
MYOM3 (GeneID 127294)	1	0.62	5946	inactive
IL9 (GeneID 3578)	1	-0.54	4462	inactive
KLF14 (GeneID 136259)	1	-0.02	5088	inactive
FBXO5 (GeneID 26271)	1	0.28	5417	inactive
TFRC (GeneID 7037)	1	-0.06	4520	inactive
SAP30 (GeneID 8819)	1	0.75	6512	inactive
OR5T1 (GeneID 390155)	1	-1.1	5799	inactive
YJU2 (GeneID 55702)	1	-0.54	6402	inactive
IL17A (GeneID 3605)	1	-1.37	6304	inactive
PGA5 (GeneID 5222)	1	1.66	5948	inactive
CA9 (GeneID 768)	1	-0.18	6372	inactive
METTL9 (GeneID 51108)	1	1.54	4327	inactive
LYRM9 (GeneID 201229)	1	0.54	3961	inactive
MST1R (GeneID 4486)	1	-2.04	6277	active
EIF3M (GeneID 10480)	1	-1.36	5946	inactive
OR2M5 (GeneID 127059)	1	0.58	5293	inactive
CRISP1 (GeneID 167)	1	-0.78	5643	inactive
MTO1 (GeneID 25821)	1	0.6	5277	inactive
ASB6 (GeneID 140459)	1	-1.01	4356	inactive
LCN10 (GeneID 414332)	1	0.78	4840	inactive
NUS1 (GeneID 116150)	1	-0.76	6904	inactive
HECW2 (GeneID 57520)	1	-1.04	4883	inactive
ATG12 (GeneID 9140)	1	-7.94	3834	active
RHNO1 (GeneID 83695)	1	-1.16	4468	inactive
MEX3A (GeneID 92312)	1	0.13	5914	inactive
PBX4 (GeneID 80714)	1	0.8	5339	inactive
PTPN2 (GeneID 5771)	1	-0.1	6832	inactive
NPAT (GeneID 4863)	1	1.28	5982	inactive
SLC7A14 (GeneID 57709)	1	-0.8	6000	inactive
DMAP1 (GeneID 55929)	1	0.86	4508	inactive
PROCR (GeneID 10544)	1	1.4	5844	inactive
POFUT2 (GeneID 23275)	1	-0.4	5704	inactive
ECM2 (GeneID 1842)	1	2.22	6416	active
NAA15 (GeneID 80155)	1	1.15	5474	inactive
DENND1B (GeneID 163486)	1	1.03	4186	inactive
DENND1B (GeneID 163486)	2	2.12	5616	active
MAP7D1 (GeneID 55700)	1	-0.26	5491	inactive
CXCR1 (GeneID 3577)	1	-0.76	5436	inactive
GIGYF2 (GeneID 26058)	1	-0.13	4766	inactive
ROBO3 (GeneID 64221)	1	0.22	6673	inactive
C3orf38 (GeneID 285237)	1	2.61	6118	active
SESN2 (GeneID 83667)	1	1.19	7175	inactive
CNPY2 (GeneID 10330)	1	0.89	6028	inactive
CETN2 (GeneID 1069)	1	-0.53	5286	inactive
TTC19 (GeneID 54902)	1	1.39	4634	inactive
OR9A2 (GeneID 135924)	1	0.48	5188	inactive
HLA-DRB4 (GeneID 3126)	1	2.9	7232	active
EXD2 (GeneID 55218)	1	-0.57	6346	inactive
POU5F2 (GeneID 134187)	1	0.2	4815	inactive
TMEM196 (GeneID 256130)	1	1.06	7102	inactive
ARAP3 (GeneID 64411)	1	1.18	5338	inactive
UFD1 (GeneID 7353)	1	0.65	5116	inactive
MUC15 (GeneID 143662)	1	2.17	5734	active
FATE1 (GeneID 89885)	1	-1.31	4574	inactive
SACS (GeneID 26278)	1	-0.52	5184	inactive
SLC12A2 (GeneID 6558)	1	-0.8	5438	inactive
ZNF710 (GeneID 374655)	1	-1.89	5948	inactive
HMOX1 (GeneID 3162)	1	0.18	6366	inactive
MCHR1 (GeneID 2847)	1	-0.8	5518	inactive
AMHR2 (GeneID 269)	1	-2.86	3332	active
SUGCT (GeneID 79783)	1	0.13	5474	inactive
SEC24D (GeneID 9871)	1	0.59	5123	inactive

A stretch of the results above:
gene knocked down	pool no.	migration robust z-score	nuclei per well, duplicate mean	activity call
NAA15 (GeneID 80155)	1	1.15	5474	inactive
DENND1B (GeneID 163486)	1	1.03	4186	inactive
DENND1B (GeneID 163486)	2	2.12	5616	active
